PubChem BioAssay AID1259308, NCATS – 2017
Here is one part, drawn at random, of about 59,000 deposited reagents. About 1,510 of all reagents (2.6%) were called active. 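Calls use total luciferase alone and ignore viability, so some active siRNAs may act by altering cell number.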 Unmarked entries are inactive. The numbers tell different reagents against one gene apart. Further read-outs or replicates are left out here.

- Screen: 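Knock-downs that increase output of a recombinant reporter protein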 (primary screen)
- System: human HEK293 embryonic kidney cells stably expressing firefly luciferase (HEK-CMV-Luc2-Hygro)
- Reagents: single siRNA against human genes, 0.8 pmol siRNA per well
- Duration: 72 h
- Measured: 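Reporter luminescence and viable-cell signal on separate replicate plates, given as percent of non-targeting control and median/MAD z-scores, plus per-cell luciferase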
- Reading the numbers: total luciferase, z-score and total luciferase, % of control: higher = more reporter protein produced
- Hit rule: 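Active when the median/MAD z-score for overall luciferase is greater than 3; a gene was taken forward for validation with new siRNAs if at least two of its three siRNAs passed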
- Calls: active = raised luciferase; inactive = no rise

no.	gene symbol	reagent no.	total luciferase, z-score	total luciferase, % of control
1	SMIM10L2A (GeneID 399668)	1	0.543	92.7
2	SMIM10L2A (GeneID 399668)	2	2.65	135
3	SMIM10L2A (GeneID 399668)	3	4.16 (active)	165
4	LY6G6F (GeneID 259215)	1	1.9	120
5	LY6G6F (GeneID 259215)	2	2.79	137
6	LY6G6F (GeneID 259215)	3	-0.47	72.5
7	CERT1 (GeneID 10087)	1	0.0696	83.3
8	CERT1 (GeneID 10087)	2	-0.102	79.9
9	CERT1 (GeneID 10087)	3	-0.598	70
10	WDR49 (GeneID 151790)	1	-0.161	78.7
11	WDR49 (GeneID 151790)	2	0.209	86
12	WDR49 (GeneID 151790)	3	0.33	88.4
13	TUSC1 (GeneID 286319)	1	1.66	115
14	TUSC1 (GeneID 286319)	2	-0.601	69.9
15	TUSC1 (GeneID 286319)	3	0.24	86.7
16	RPL26P11 (GeneID 730070)	1	0.0318	82.5
17	RPL26P11 (GeneID 730070)	2	-2.47	32.8
18	RPL26P11 (GeneID 730070)	3	-0.911	63.8
19	ADAM20 (GeneID 8748)	1	-0.605	69.9
20	ADAM20 (GeneID 8748)	2	-0.991	62.2
21	ADAM20 (GeneID 8748)	3	-0.853	64.9
22	LOC643936 (retired record) (GeneID 643936)	1	-0.0721	80.5
23	LOC643936 (retired record) (GeneID 643936)	2	0.982	101
24	LOC643936 (retired record) (GeneID 643936)	3	-1.96	42.9
25	GRIN3A (GeneID 116443)	1	-0.08	80.3
26	GRIN3A (GeneID 116443)	2	0.131	84.5
27	GRIN3A (GeneID 116443)	3	0.877	99.3
28	MTCH1 (GeneID 23787)	1	-1.48	52.4
29	MTCH1 (GeneID 23787)	2	-1.12	59.7
30	MTCH1 (GeneID 23787)	3	-1.16	58.9
31	FAM220A (GeneID 84792)	1	-0.308	75.8
32	FAM220A (GeneID 84792)	2	-0.674	68.5
33	FAM220A (GeneID 84792)	3	0.429	90.4
34	UBAP1L (GeneID 390595)	1	2.57	133
35	UBAP1L (GeneID 390595)	2	1.46	111
36	UBAP1L (GeneID 390595)	3	1.06	103
37	C22orf23 (GeneID 84645)	1	-1.46	52.8
38	C22orf23 (GeneID 84645)	2	0.406	90
39	C22orf23 (GeneID 84645)	3	-0.266	76.6
40	SERF1B (GeneID 728492)	1	-0.391	74.1
41	SERF1B (GeneID 728492)	2	0.345	88.7
42	SERF1B (GeneID 728492)	3	-0.202	77.9
43	SNRNP48 (GeneID 154007)	1	2.08	123
44	SNRNP48 (GeneID 154007)	2	-0.843	65.1
45	SNRNP48 (GeneID 154007)	3	0.538	92.6
46	ATP5F1A (GeneID 498)	1	1.26	107
47	ATP5F1A (GeneID 498)	2	1.81	118
48	ATP5F1A (GeneID 498)	3	-0.357	74.8
49	GPR101 (GeneID 83550)	1	-0.0454	81
50	GPR101 (GeneID 83550)	2	-0.968	62.6
51	GPR101 (GeneID 83550)	3	-0.241	77.1
52	DCAF1 (GeneID 9730)	1	-1.35	55.1
53	DCAF1 (GeneID 9730)	2	0.0934	83.7
54	DCAF1 (GeneID 9730)	3	0.0629	83.1
55	THYN1 (GeneID 29087)	1	-0.281	76.3
56	THYN1 (GeneID 29087)	2	-2.25	37.1
57	THYN1 (GeneID 29087)	3	0.866	99.1
